Results are given in words; binding and its absence hold for the method and conditions named. In cells and extracts the contact can be indirect. Some entries that bind do so weakly or less than the wild type.
Molecular target: T1, Ferroptosis suppressor protein 1 (human (endogenous in HEK 293T)) (UniProt Q9BRQ8)
T1 sequence: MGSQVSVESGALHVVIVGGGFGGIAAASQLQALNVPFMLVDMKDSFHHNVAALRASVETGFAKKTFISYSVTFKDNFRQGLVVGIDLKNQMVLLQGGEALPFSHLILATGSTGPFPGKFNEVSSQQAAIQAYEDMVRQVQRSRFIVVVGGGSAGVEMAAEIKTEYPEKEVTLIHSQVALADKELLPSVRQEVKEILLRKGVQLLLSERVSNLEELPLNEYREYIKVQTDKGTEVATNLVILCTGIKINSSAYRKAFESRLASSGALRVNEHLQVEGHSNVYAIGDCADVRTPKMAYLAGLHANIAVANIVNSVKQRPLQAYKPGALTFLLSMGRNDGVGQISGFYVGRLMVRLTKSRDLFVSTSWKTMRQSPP
Assay: co-IP; IP with IgG (control), anti-Ku70, anti-Ku80 or anti-FSP1 antibody from HEK 293T lysate, protein A/G magnetic beads, 4 °C; immunoblot

By UniProt entry, the sequences of proteins in these tests, tags left out.
UniProt P12956: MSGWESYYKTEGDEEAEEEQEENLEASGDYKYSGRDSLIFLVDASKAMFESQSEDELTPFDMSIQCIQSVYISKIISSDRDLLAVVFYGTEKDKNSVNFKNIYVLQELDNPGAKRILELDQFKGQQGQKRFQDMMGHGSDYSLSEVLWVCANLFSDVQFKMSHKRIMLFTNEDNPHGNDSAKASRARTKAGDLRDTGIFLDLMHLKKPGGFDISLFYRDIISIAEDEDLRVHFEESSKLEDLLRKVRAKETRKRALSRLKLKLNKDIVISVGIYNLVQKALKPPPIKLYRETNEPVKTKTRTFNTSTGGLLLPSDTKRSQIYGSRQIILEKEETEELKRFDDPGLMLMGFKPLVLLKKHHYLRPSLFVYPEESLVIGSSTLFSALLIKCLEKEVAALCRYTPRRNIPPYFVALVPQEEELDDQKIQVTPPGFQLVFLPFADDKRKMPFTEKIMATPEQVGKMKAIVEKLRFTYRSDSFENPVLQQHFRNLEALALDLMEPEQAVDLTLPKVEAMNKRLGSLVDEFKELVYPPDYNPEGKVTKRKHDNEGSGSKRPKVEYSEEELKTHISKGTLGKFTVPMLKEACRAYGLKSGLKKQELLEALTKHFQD
UniProt P13010: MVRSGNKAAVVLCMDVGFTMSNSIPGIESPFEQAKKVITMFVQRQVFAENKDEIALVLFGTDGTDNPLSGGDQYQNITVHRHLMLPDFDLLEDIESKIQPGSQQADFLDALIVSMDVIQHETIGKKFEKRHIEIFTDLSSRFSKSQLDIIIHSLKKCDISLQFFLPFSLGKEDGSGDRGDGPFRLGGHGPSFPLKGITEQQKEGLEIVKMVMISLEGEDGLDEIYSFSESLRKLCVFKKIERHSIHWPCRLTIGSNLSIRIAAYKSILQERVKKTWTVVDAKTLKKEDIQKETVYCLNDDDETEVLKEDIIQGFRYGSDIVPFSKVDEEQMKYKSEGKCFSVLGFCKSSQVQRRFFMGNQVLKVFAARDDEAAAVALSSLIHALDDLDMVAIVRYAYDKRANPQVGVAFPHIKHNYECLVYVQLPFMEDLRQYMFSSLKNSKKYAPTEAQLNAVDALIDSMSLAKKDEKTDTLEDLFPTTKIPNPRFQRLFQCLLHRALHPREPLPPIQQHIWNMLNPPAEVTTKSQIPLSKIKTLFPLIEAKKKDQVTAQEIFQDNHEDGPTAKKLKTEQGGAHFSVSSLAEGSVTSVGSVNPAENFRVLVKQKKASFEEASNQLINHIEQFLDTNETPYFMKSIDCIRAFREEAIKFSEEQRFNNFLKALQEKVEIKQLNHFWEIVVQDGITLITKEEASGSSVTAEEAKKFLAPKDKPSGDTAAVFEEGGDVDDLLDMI

| Substance | binding |
| --- | --- |
| Ku70 (from UniProt P12956 1-609) | binds |
| Ku80 (from UniProt P13010 1-732) | binds |

Reference: publication PMC11043371
